Data from the supplement of paper PMC7661543.
± gives the standard deviation of the averaged measurements. The effect of the compound repeats well; differences between the knockouts mostly do not.

System: SKBR3
Test: relative cell number vs DMSO control (72 h) (% of DMSO); higher = less growth inhibition (more cells)
Description: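 QMAP-Seq: a pool of 5 breast cancer cell lines (ZR-75-1, SKBR3, HCC-38, MDA-MB-231, BT-20), each carrying 12 doxycycline-inducible Cas9 sgRNA perturbations (11 knockouts plus non-targeting sgNT), was treated with compounds for 72 h at four 10-fold doses (10 nM-10 uM or 1 nM-1 uM range). Barcodes were amplified and sequenced, and cell number was interpolated from 293T spike-in standard curves. The result is expressed as % of the median of DMSO wells. Two biological replicates.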

Nc1ncn([C@H]2C[C@H](O)[C@@H](CO)O2)c(=O)n1 [Decitabine]
Conditions	relative cell number
sgRNA knockout: sgATF3, 10 nM	132 ± 13
sgRNA knockout: sgATF3, 100 nM	103 ± 5.8
sgRNA knockout: sgATF3, 1000 nM	56 ± 3.4
sgRNA knockout: sgATF3, 10000 nM	34.4 ± 11
sgRNA knockout: sgATF4, 10 nM	95 ± 1.6
sgRNA knockout: sgATF4, 100 nM	100 ± 14
sgRNA knockout: sgATF4, 1000 nM	65.5 ± 6.3
sgRNA knockout: sgATF4, 10000 nM	34.9 ± 4
sgRNA knockout: sgATF6, 10 nM	108.7 ± 0.74
sgRNA knockout: sgATF6, 100 nM	88.2 ± 5.2
sgRNA knockout: sgATF6, 1000 nM	57.4 ± 4.4
sgRNA knockout: sgATF6, 10000 nM	36 ± 2.7
sgRNA knockout: sgATG7, 10 nM	86.6 ± 27
sgRNA knockout: sgATG7, 100 nM	93.5 ± 38
sgRNA knockout: sgATG7, 1000 nM	53.9 ± 7.9
sgRNA knockout: sgATG7, 10000 nM	33.2 ± 6.7
sgRNA knockout: sgERN1, 10 nM	83 ± 24
sgRNA knockout: sgERN1, 100 nM	99.2 ± 12
sgRNA knockout: sgERN1, 1000 nM	66.6 ± 5.1
sgRNA knockout: sgERN1, 10000 nM	37.6 ± 9.4
sgRNA knockout: sgHSF1, 10 nM	116 ± 42
sgRNA knockout: sgHSF1, 100 nM	91.4 ± 16
sgRNA knockout: sgHSF1, 1000 nM	53.6 ± 15
sgRNA knockout: sgHSF1, 10000 nM	37.9 ± 13
sgRNA knockout: sgHSF2, 10 nM	72.5 ± 7.8
sgRNA knockout: sgHSF2, 100 nM	76.2 ± 8.8
sgRNA knockout: sgHSF2, 1000 nM	58.9 ± 5.2
sgRNA knockout: sgHSF2, 10000 nM	35.1 ± 1.2
sgRNA knockout: sgKEAP1, 10 nM	94.4 ± 12
sgRNA knockout: sgKEAP1, 100 nM	94.3 ± 22
sgRNA knockout: sgKEAP1, 1000 nM	52.1 ± 9.8
sgRNA knockout: sgKEAP1, 10000 nM	36 ± 7.9
sgRNA knockout: sgNFE2L2, 10 nM	99.7 ± 3.2
sgRNA knockout: sgNFE2L2, 100 nM	90.4 ± 21
sgRNA knockout: sgNFE2L2, 1000 nM	48.5 ± 6
sgRNA knockout: sgNFE2L2, 10000 nM	42.1 ± 2.5
sgRNA knockout: sgSLC35F2, 10 nM	102 ± 4.7
sgRNA knockout: sgSLC35F2, 100 nM	86.3 ± 0.97
sgRNA knockout: sgSLC35F2, 1000 nM	56 ± 7.4
sgRNA knockout: sgSLC35F2, 10000 nM	35.6 ± 14
sgRNA knockout: sgXBP1, 10 nM	101 ± 14
sgRNA knockout: sgXBP1, 100 nM	95.6 ± 2.6
sgRNA knockout: sgXBP1, 1000 nM	51.3 ± 8.6
sgRNA knockout: sgXBP1, 10000 nM	29 ± 5.7

Cc1ccc(NC(=O)c2ccc(CN3CCN(C)CC3)cc2)cc1Nc1nc(-c2cccnc2)cs1 [Masitinib]
Conditions	relative cell number
sgRNA knockout: sgATF3, 10 nM	100 ± 30
sgRNA knockout: sgATF3, 100 nM	95.4 ± 34
sgRNA knockout: sgATF3, 1000 nM	97.4 ± 36
sgRNA knockout: sgATF3, 10000 nM	65.7 ± 4.3
sgRNA knockout: sgATF4, 10 nM	92.4 ± 21
sgRNA knockout: sgATF4, 100 nM	87 ± 8.6
sgRNA knockout: sgATF4, 1000 nM	82.5 ± 24
sgRNA knockout: sgATF4, 10000 nM	80.9 ± 5
sgRNA knockout: sgATF6, 10 nM	94.3 ± 12
sgRNA knockout: sgATF6, 100 nM	75 ± 30
sgRNA knockout: sgATF6, 1000 nM	100 ± 38
sgRNA knockout: sgATF6, 10000 nM	69.2 ± 9.3
sgRNA knockout: sgATG7, 10 nM	75.2 ± 11
sgRNA knockout: sgATG7, 100 nM	114 ± 44
sgRNA knockout: sgATG7, 1000 nM	101 ± 40
sgRNA knockout: sgATG7, 10000 nM	77.8 ± 2.3
sgRNA knockout: sgERN1, 10 nM	113 ± 18
sgRNA knockout: sgERN1, 100 nM	102 ± 7.3
sgRNA knockout: sgERN1, 1000 nM	104 ± 37
sgRNA knockout: sgERN1, 10000 nM	83.5 ± 22
sgRNA knockout: sgHSF1, 10 nM	99.9 ± 32
sgRNA knockout: sgHSF1, 100 nM	94.7 ± 25
sgRNA knockout: sgHSF1, 1000 nM	90.1 ± 36
sgRNA knockout: sgHSF1, 10000 nM	81.3 ± 6.6
sgRNA knockout: sgHSF2, 10 nM	96.1 ± 20
sgRNA knockout: sgHSF2, 100 nM	76.6 ± 7.5
sgRNA knockout: sgHSF2, 1000 nM	104 ± 27
sgRNA knockout: sgHSF2, 10000 nM	74.5 ± 12
sgRNA knockout: sgKEAP1, 10 nM	111 ± 5
sgRNA knockout: sgKEAP1, 100 nM	76.4 ± 1.6
sgRNA knockout: sgKEAP1, 1000 nM	79.3 ± 21
sgRNA knockout: sgKEAP1, 10000 nM	88.5 ± 2.5
sgRNA knockout: sgNFE2L2, 10 nM	82.4 ± 5.4
sgRNA knockout: sgNFE2L2, 100 nM	93.6 ± 7.7
sgRNA knockout: sgNFE2L2, 1000 nM	79.6 ± 7.3
sgRNA knockout: sgNFE2L2, 10000 nM	90.3 ± 17
sgRNA knockout: sgSLC35F2, 10 nM	87.3 ± 30
sgRNA knockout: sgSLC35F2, 100 nM	96.5 ± 22
sgRNA knockout: sgSLC35F2, 1000 nM	74.7 ± 16
sgRNA knockout: sgSLC35F2, 10000 nM	83.1 ± 6.4
sgRNA knockout: sgXBP1, 10 nM	105 ± 8.3
sgRNA knockout: sgXBP1, 100 nM	79.4 ± 28
sgRNA knockout: sgXBP1, 1000 nM	89.1 ± 7.5
sgRNA knockout: sgXBP1, 10000 nM	81.9 ± 18

O=c1[nH]cc(F)c(=O)[nH]1 [5-Fluorouracil]
Conditions	relative cell number
sgRNA knockout: sgATF3, 10 nM	109 ± 4.8
sgRNA knockout: sgATF3, 100 nM	99 ± 18
sgRNA knockout: sgATF3, 1000 nM	72.2 ± 15
sgRNA knockout: sgATF3, 10000 nM	33.3 ± 9.9
sgRNA knockout: sgATF4, 10 nM	96.3 ± 9.6
sgRNA knockout: sgATF4, 100 nM	106 ± 24
sgRNA knockout: sgATF4, 1000 nM	73 ± 17
sgRNA knockout: sgATF4, 10000 nM	27.9 ± 7.2
sgRNA knockout: sgATF6, 10 nM	102 ± 23
sgRNA knockout: sgATF6, 100 nM	96.6 ± 9.6
sgRNA knockout: sgATF6, 1000 nM	66 ± 12
sgRNA knockout: sgATF6, 10000 nM	26 ± 5.2
sgRNA knockout: sgATG7, 10 nM	115 ± 4.7
sgRNA knockout: sgATG7, 100 nM	103 ± 37
sgRNA knockout: sgATG7, 1000 nM	62.6 ± 20
sgRNA knockout: sgATG7, 10000 nM	27.42 ± 0.18
sgRNA knockout: sgERN1, 10 nM	87.31 ± 0.23
sgRNA knockout: sgERN1, 100 nM	125 ± 8.2
sgRNA knockout: sgERN1, 1000 nM	73.5 ± 12
sgRNA knockout: sgERN1, 10000 nM	25.4 ± 3.2
sgRNA knockout: sgHSF1, 10 nM	84.7 ± 15
sgRNA knockout: sgHSF1, 100 nM	91.9 ± 1.9
sgRNA knockout: sgHSF1, 1000 nM	78.4 ± 6.4
sgRNA knockout: sgHSF1, 10000 nM	30.1 ± 1.2
sgRNA knockout: sgHSF2, 10 nM	87.8 ± 11
sgRNA knockout: sgHSF2, 100 nM	118 ± 1.8
sgRNA knockout: sgHSF2, 1000 nM	71.1 ± 2.8
sgRNA knockout: sgHSF2, 10000 nM	26.7 ± 7
sgRNA knockout: sgKEAP1, 10 nM	90.2 ± 10
sgRNA knockout: sgKEAP1, 100 nM	99.3 ± 51
sgRNA knockout: sgKEAP1, 1000 nM	56.7 ± 11
sgRNA knockout: sgKEAP1, 10000 nM	22.6 ± 5.6
sgRNA knockout: sgNFE2L2, 10 nM	96.15 ± 0.95
sgRNA knockout: sgNFE2L2, 100 nM	116 ± 3.1
sgRNA knockout: sgNFE2L2, 1000 nM	72.7 ± 15
sgRNA knockout: sgNFE2L2, 10000 nM	33 ± 7.8
sgRNA knockout: sgSLC35F2, 10 nM	93.6 ± 4.5
sgRNA knockout: sgSLC35F2, 100 nM	91.2 ± 19
sgRNA knockout: sgSLC35F2, 1000 nM	72.9 ± 15
sgRNA knockout: sgSLC35F2, 10000 nM	24 ± 2.7
sgRNA knockout: sgXBP1, 10 nM	92.7 ± 14
sgRNA knockout: sgXBP1, 100 nM	86.7 ± 30
sgRNA knockout: sgXBP1, 1000 nM	62.37 ± 0.6
sgRNA knockout: sgXBP1, 10000 nM	25 ± 3.6
